In PMC9392723:
Positions count from the first letter of the chain named. No constants are given. Whether binding was seen depends on the method and setting. Binding seen in cells or lysates may run through a third protein. Some results given as binding are weak or reduced against the parent protein; the word gives no strength. Tags and fused reporters may be left off the sequences shown.

Legend:
Experiment in all cases: proximity ligation; Duolink in situ PLA in fixed HEK293 cells transfected with HA-tagged PAHwt, R241C or R243Q; primary antibodies against PAH and USP19 together; single antibodies as negative control
[1] = biological target: T1, HA-tagged PAH R243Q (human) (UniProt P00439)
T1 sequence: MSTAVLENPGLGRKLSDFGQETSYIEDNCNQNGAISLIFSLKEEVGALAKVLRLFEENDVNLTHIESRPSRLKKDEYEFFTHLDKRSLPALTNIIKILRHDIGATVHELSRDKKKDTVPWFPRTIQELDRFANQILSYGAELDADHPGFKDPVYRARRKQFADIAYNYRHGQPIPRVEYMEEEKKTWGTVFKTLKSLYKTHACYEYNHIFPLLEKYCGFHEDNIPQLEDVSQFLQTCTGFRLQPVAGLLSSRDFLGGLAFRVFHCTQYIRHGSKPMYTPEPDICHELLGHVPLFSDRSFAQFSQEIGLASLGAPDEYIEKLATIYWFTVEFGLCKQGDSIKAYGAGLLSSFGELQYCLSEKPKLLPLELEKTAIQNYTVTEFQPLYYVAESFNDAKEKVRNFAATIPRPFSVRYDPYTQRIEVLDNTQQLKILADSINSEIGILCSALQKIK

[2] = biological target: T2, HA-tagged PAH wild-type (human) (UniProt P00439)
T2 sequence: T1 sequence with Q243R

[3] = biological target: T3, HA-tagged PAH R241C (human) (UniProt P00439)
T3 sequence: T1 sequence with R241C, Q243R

Measured: binding

B1: USP19 (detected with USP19 antibody in HEK293 cells) (enzyme, UniProt O94966 1-1318)
chain: MSGGASATGPRRGPPGLEDTTSKKKQKDRANQESKDGDPRKETGSRYVAQAGLEPLASGDPSASASHAAGITGSRHRTRLFFPSSSGSASTPQEEQTKEGACEDPHDLLATPTPELLLDWRQSAEEVIVKLRVGVGPLQLEDVDAAFTDTDCVVRFAGGQQWGGVFYAEIKSSCAKVQTRKGSLLHLTLPKKVPMLTWPSLLVEADEQLCIPPLNSQTCLLGSEENLAPLAGEKAVPPGNDPVSPAMVRSRNPGKDDCAKEEMAVAADAATLVDEPESMVNLAFVKNDSYEKGPDSVVVHVYVKEICRDTSRVLFREQDFTLIFQTRDGNFLRLHPGCGPHTTFRWQVKLRNLIEPEQCTFCFTASRIDICLRKRQSQRWGGLEAPAARVGGAKVAVPTGPTPLDSTPPGGAPHPLTGQEEARAVEKDKSKARSEDTGLDSVATRTPMEHVTPKPETHLASPKPTCMVPPMPHSPVSGDSVEEEEEEEKKVCLPGFTGLVNLGNTCFMNSVIQSLSNTRELRDFFHDRSFEAEINYNNPLGTGGRLAIGFAVLLRALWKGTHHAFQPSKLKAIVASKASQFTGYAQHDAQEFMAFLLDGLHEDLNRIQNKPYTETVDSDGRPDEVVAEEAWQRHKMRNDSFIVDLFQGQYKSKLVCPVCAKVSITFDPFLYLPVPLPQKQKVLPVFYFAREPHSKPIKFLVSVSKENSTASEVLDSLSQSVHVKPENLRLAEVIKNRFHRVFLPSHSLDTVSPSDTLLCFELLSSELAKERVVVLEVQQRPQVPSVPISKCAACQRKQQSEDEKLKRCTRCYRVGYCNQLCQKTHWPDHKGLCRPENIGYPFLVSVPASRLTYARLAQLLEGYARYSVSVFQPPFQPGRMALESQSPGCTTLLSTGSLEAGDSERDPIQPPELQLVTPMAEGDTGLPRVWAAPDRGPVPSTSGISSEMLASGPIEVGSLPAGERVSRPEAAVPGYQHPSEAMNAHTPQFFIYKIDSSNREQRLEDKGDTPLELGDDCSLALVWRNNERLQEFVLVASKELECAEDPGSAGEAARAGHFTLDQCLNLFTRPEVLAPEEAWYCPQCKQHREASKQLLLWRLPNVLIVQLKRFSFRSFIWRDKINDLVEFPVRNLDLSKFCIGQKEEQLPSYDLYAVINHYGGMIGGHYTACARLPNDRSSQRSDVGWRLFDDSTVTTVDESQVVTRYAYVLFYRRRNSPVERPPRAGHSEHHPDLGPAAEAAASQASRIWQELEAEEEPVPEGSGPLGPWGPQDWVGPLPRGPTTPDEGCLRYFVLGTVAALVALVLNVFYPLVSQSRWR
binds: all assays above
